Reference: article PMC5727232, “Structural basis for genome wide recognition of 5-bp GC motifs by SMAD transcription factors”
These are yes or no findings as the source states them, for the method shown.

Amino acid sequences for entries named in this document (tags omitted). Residues count along the entry.
UniProt Q13485, residues 10-140: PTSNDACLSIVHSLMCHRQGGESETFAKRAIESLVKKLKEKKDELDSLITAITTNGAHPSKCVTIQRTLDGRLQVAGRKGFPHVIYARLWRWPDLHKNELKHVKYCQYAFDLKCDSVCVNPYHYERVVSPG

Legend:
[1] = target: human Smad4 MH1 domain (Pro10-Gly140) (human) (UniProt Q13485); experiment: SAXS; Smad4 MH1 without DNA, 0.5-4.2 mg/mL, 20 mM Tris pH 7.2, 150 mM NaCl, 10 °C, ESRF BM29; both purified
[2] = target: human Smad4 MH1 domain (Pro10-Gly140) (human) (UniProt Q13485); experiment: NMR 15N backbone relaxation (T1, T2, rotational correlation time); Smad4 MH1 without DNA, 15N relaxation data at two protein concentrations; correlation time 9.5 ns; both purified

binding [1]: no binding (tested: 0.5 to 4.2 mg mL^−1) | binding [2]: no binding
Substance: human Smad4 MH1 domain (Pro10-Gly140) (from UniProt Q13485 10-140) (domain or fragment)
